# Test results: the supplement of paper PMC12067093, “Discovery and optimisation of a covalent ligand for TRIM25 and its application to targeted protein ubiquitination” (Chemical Science, 2025)
# Protein sequences, listed by entry. Tags and fused reporters are not part of them. Lines headed by an entry give the natural chain unless they say otherwise; changes in a name come on top.
# UniProt P28482, whole entry, looked up: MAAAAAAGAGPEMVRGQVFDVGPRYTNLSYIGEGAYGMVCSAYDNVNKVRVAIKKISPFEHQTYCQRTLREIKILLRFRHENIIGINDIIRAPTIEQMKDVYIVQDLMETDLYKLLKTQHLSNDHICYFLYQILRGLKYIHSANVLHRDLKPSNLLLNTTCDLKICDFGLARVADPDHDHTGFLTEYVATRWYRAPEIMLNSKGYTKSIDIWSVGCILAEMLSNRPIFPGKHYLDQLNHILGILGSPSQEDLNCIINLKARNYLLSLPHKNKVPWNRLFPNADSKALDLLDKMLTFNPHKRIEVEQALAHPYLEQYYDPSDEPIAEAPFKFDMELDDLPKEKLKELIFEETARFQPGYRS
# UniProt P43243: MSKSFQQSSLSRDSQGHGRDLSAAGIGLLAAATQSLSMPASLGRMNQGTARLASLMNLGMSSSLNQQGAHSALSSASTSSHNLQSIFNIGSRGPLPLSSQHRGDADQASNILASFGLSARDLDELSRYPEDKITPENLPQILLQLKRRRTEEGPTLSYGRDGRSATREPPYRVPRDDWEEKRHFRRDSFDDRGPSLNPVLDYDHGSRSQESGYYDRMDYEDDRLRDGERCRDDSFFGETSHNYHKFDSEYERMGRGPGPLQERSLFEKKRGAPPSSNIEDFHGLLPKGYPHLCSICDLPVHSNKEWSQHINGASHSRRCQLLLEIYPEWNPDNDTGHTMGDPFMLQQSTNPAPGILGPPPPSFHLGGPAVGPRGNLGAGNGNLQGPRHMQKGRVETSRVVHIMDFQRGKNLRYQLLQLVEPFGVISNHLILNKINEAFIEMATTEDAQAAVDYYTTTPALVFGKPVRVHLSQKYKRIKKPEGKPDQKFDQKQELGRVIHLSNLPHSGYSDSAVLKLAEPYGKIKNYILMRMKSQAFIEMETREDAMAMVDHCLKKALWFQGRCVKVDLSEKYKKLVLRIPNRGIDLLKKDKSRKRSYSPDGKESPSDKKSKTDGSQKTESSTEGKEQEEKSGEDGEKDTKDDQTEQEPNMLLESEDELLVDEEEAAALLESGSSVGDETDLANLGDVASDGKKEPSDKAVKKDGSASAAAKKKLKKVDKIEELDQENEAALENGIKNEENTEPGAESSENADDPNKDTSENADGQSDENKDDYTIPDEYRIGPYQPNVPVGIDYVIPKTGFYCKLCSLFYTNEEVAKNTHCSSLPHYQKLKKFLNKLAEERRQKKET
# UniProt Q92918, whole entry, looked up: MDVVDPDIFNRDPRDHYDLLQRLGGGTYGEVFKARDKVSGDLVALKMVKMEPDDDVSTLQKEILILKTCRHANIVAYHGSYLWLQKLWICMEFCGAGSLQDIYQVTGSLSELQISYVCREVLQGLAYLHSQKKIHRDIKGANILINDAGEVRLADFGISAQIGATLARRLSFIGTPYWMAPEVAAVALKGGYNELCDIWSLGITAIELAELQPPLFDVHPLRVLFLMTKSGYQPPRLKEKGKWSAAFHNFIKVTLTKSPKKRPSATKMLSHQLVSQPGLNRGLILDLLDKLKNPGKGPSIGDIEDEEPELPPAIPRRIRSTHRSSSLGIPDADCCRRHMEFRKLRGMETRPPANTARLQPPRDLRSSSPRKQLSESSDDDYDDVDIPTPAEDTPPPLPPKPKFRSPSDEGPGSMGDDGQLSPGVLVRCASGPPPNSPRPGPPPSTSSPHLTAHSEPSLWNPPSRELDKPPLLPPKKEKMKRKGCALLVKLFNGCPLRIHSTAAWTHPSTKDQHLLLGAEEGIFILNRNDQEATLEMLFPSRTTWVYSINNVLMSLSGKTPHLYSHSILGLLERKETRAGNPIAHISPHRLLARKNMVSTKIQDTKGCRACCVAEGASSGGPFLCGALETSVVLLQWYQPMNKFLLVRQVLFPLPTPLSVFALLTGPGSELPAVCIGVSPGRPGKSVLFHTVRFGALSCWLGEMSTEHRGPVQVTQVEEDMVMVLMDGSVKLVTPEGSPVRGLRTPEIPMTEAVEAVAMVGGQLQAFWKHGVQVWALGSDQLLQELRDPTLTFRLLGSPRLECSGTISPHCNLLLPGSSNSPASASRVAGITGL
# UniProt O00462: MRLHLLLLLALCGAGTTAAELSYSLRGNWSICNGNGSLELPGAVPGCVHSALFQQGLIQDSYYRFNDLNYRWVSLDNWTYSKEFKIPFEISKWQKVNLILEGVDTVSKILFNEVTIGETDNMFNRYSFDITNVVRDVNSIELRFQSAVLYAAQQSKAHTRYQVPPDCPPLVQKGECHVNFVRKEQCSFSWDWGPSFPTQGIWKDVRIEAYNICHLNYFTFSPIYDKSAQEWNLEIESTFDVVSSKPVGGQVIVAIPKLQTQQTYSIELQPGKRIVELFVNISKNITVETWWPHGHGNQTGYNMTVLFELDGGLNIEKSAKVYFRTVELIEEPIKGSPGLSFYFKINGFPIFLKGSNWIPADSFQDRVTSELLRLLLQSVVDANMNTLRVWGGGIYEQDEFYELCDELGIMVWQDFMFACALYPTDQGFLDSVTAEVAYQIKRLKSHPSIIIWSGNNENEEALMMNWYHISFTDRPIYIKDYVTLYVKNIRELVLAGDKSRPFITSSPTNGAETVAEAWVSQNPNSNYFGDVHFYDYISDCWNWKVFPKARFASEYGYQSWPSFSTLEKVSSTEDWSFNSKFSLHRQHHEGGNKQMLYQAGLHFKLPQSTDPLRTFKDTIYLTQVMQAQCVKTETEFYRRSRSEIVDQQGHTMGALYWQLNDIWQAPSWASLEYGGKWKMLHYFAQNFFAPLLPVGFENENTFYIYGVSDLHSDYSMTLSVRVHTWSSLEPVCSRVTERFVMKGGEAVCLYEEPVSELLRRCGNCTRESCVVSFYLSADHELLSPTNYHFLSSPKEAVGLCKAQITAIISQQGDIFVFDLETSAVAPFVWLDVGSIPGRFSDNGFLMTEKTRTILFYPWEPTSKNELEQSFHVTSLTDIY
# UniProt P46734: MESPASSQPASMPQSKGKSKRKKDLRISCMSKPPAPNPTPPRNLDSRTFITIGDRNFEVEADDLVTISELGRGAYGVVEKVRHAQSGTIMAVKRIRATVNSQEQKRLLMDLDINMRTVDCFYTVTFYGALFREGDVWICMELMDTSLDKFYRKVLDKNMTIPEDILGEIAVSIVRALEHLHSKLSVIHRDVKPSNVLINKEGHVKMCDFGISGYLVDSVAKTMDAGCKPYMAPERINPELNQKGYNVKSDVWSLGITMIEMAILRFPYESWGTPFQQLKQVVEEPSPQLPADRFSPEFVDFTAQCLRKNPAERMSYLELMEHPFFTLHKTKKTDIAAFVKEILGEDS
# UniProt Q66K74: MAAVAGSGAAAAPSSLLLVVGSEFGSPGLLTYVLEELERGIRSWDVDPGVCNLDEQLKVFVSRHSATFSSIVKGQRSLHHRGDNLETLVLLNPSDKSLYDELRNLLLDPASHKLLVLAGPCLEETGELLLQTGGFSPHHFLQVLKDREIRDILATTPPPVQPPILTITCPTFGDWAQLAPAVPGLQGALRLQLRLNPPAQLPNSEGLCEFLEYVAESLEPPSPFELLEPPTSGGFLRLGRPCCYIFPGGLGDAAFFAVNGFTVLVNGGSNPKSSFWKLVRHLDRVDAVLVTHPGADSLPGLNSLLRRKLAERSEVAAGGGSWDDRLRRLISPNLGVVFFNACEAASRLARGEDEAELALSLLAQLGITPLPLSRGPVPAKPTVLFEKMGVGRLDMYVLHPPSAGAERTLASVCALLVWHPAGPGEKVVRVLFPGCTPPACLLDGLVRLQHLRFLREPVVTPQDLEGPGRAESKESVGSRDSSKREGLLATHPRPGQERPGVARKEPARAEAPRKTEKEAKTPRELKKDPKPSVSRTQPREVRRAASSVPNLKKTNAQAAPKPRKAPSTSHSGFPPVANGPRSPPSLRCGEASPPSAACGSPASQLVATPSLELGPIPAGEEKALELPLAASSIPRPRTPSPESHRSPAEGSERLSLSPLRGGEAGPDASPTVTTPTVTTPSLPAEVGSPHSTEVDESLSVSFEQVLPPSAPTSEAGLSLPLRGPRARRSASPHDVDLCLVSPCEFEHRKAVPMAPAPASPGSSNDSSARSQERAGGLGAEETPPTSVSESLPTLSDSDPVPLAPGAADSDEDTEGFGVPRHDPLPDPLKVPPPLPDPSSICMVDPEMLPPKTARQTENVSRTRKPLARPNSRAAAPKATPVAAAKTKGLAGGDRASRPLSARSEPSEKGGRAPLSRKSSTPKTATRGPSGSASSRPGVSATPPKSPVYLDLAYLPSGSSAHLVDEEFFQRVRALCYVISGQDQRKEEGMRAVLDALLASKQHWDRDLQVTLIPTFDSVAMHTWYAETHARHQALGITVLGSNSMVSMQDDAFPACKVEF
# UniProt Q9Y4F3: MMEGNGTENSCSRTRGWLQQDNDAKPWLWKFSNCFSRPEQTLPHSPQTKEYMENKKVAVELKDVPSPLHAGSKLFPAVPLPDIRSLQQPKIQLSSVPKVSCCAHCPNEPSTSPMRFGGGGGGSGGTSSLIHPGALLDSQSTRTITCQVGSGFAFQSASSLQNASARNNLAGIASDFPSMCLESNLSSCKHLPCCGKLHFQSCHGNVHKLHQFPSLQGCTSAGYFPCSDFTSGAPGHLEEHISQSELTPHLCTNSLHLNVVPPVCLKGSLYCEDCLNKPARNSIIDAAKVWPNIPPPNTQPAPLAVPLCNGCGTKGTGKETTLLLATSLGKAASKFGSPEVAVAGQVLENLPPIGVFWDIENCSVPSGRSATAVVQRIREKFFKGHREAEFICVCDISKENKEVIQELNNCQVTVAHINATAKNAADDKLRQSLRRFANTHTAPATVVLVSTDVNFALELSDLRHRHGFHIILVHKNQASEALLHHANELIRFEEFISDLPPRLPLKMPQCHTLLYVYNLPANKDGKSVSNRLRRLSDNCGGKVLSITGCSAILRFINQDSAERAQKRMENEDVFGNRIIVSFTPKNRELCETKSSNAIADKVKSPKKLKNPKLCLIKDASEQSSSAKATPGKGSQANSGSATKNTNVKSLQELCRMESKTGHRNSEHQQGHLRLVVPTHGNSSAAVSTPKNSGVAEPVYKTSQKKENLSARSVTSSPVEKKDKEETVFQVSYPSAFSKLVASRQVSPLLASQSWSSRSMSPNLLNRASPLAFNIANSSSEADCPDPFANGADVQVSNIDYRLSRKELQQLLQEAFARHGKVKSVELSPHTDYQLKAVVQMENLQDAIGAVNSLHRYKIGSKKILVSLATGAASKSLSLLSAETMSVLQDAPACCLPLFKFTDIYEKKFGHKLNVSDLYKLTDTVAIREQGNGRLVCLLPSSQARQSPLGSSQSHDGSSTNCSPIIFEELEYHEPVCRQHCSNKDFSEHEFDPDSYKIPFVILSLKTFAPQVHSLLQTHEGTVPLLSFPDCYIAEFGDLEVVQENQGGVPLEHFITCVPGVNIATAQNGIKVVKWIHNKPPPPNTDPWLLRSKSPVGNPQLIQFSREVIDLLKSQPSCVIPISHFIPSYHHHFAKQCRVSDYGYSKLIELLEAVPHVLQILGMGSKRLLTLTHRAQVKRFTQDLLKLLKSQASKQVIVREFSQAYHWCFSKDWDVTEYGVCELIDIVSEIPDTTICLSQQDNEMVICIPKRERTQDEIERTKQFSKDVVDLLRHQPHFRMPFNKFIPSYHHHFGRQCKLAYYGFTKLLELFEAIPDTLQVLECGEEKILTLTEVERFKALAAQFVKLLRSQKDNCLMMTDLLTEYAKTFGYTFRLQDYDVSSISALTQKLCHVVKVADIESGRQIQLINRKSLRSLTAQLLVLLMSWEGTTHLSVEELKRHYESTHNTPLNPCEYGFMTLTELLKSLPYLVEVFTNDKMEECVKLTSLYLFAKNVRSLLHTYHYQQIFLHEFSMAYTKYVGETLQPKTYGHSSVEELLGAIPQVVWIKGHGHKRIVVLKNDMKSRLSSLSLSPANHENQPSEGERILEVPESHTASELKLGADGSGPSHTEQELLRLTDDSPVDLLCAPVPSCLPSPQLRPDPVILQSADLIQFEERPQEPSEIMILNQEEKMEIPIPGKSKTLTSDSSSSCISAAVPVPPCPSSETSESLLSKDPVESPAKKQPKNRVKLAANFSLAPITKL
# UniProt Q9NS73: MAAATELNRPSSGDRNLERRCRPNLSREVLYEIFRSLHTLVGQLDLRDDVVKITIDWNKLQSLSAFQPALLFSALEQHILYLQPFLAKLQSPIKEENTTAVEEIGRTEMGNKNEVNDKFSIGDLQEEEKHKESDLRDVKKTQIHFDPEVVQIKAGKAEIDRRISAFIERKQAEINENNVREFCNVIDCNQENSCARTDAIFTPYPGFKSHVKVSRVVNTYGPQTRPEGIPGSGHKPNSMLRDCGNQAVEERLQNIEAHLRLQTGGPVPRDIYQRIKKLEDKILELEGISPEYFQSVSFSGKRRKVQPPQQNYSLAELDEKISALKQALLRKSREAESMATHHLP
# Some of the results follow.
# Compound: CC1Cc2ccccc2N1C(=O)C1CCCN(C1)C(=O)CCl (mixture of isomers) [TRIM25 ligand 11 (diastereomer mixture)]
# Test: probe-labelled cysteine peptide fold change vs DMSO (competition) (log2 fold change); higher = less target engagement (more negative = stronger competition)
# Conditions: 10 µM; THP-1; incubation time: 4 h
# 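Note: competitive chemoproteomic profiling in live THP-1 cells with an iodoacetamide desthiobiotin (IA-DTB) probe, comparing probe-labelled peptide intensities in compound-treated cells against DMSO-treated controls.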
row,Target,probe-labelled cysteine peptide fold change
1,LYPLA1_O75608_53_YICPHAPVRPVTLNMNVAMPSWFDIIGLSPDSQEDESGIK (UniProt O75608),-0.0108
2,MAP3K7_O43318_180_ICDFGTACDIQTHMTNNK (UniProt O43318),-0.022
3,MAPK1_P28482_40_YTNLSYIGEGAYGMVCSAYDNVNK (UniProt P28482),0.0245
4,MAN2B1_O00754_268+273_NLCWDVLCVDQPLVEDPR (UniProt O00754),-0.215
5,LZTS1_Q9Y250_450_GLELEVCENELQR (UniProt Q9Y250),0.203
6,LYAR_Q9NX58_33_NCECLSCIDCGK (UniProt Q9NX58),-0.0571
7,MATR3_P43243_821_NTHCSSLPHYQK (UniProt P43243),0.121
8,MAZ_P56270_424_VHSQGPHHVCELCNK (UniProt P56270),-0.0165
9,MAP4K1_Q92918_334+335_SSSLGIPDADCCR (UniProt Q92918),-0.0222
10,LYAR_Q9NX58_36_NCECLSCIDCGK (UniProt Q9NX58),-0.0649
11,MAP7D1_Q3KQU3_373_SASASPLTPCSVTR (UniProt Q3KQU3),-0.024
12,MANBA_O00462_213_IEAYNICHLNYFTFSPIYDK (UniProt O00462),0.219
13,MAPK9_P45984_213_ENVDIWSVGCIMGELVK (UniProt P45984),0.0811
14,M6PR_P20645_145_RAVVMISCNR (UniProt P20645),-0.0955
15,MAZ_P56270_339_SHDGAVHKPYNCSHCGK (UniProt P56270),-0.0644
16,LYAR_Q9NX58_6_VFFTCNACGESVKK (UniProt Q9NX58),-0.137
17,MAPKBP1_O60336_1443_LYHSVAGCK (UniProt O60336),0.0367
18,LUC7L_Q9NQ29_43+44_SHLLDCCPHDILAGTR (UniProt Q9NQ29),-0.0678
19,LTA4H_P09960_136_EHPYLFSQCQAIHCR (UniProt P09960),0.00289
20,MAEA_Q7L5Y9_314+317_SPDCPVCSR (UniProt Q7L5Y9),-0.0393

row,Target,probe-labelled cysteine peptide fold change
1,MACF1_Q9UPN3_3315_TVSLTVCSAVK (UniProt Q9UPN3),-0.229
2,LYST_Q99698_2223_SEDDSPGDESCPR (UniProt Q99698),-0.102
3,MAP2K3_P46734_305_FSPEFVDFTAQCLR (UniProt P46734),-0.0475
4,M6PR_P20645_145_AVVMISCNR (UniProt P20645),-0.116
5,MACF1_Q9UPN3_4581_QLEESASHLACFQAAESQLRPWLMEK (UniProt Q9UPN3),-0.0945
6,LY75_O60449_83_CLGLDITK (UniProt O60449),-0.12
7,MAP3K4_Q9Y6R4_1322_NIIGQVCDTPK (UniProt Q9Y6R4),0.0711
8,MARS_P56192_405_FVEGVCPFCGYEEAR (UniProt P56192),-0.0809
9,MACF1_Q9UPN3_986_SSAPGECHQIMK (UniProt Q9UPN3),-0.0377
10,MAP1S_Q66K74_738_SASPHDVDLCLVSPCEFEHR (UniProt Q66K74),-0.0533
11,MAP4_P27816_635_CSLPAEEDSVLEK (UniProt P27816),-0.069
12,MARF1_Q9Y4F3_590_ELCETK (UniProt Q9Y4F3),-0.0221
13,MBIP_Q9NS73_243_DCGNQAVEER (UniProt Q9NS73),-0.0155
14,MBD4_O95243_296_TVCISDAGACGETLSVTSEENSLVK (UniProt O95243),0.174
15,M6PR_P20645_32_TCDLVGEK (UniProt P20645),-0.178
16,LYST_Q99698_1855_VHELENCNGLSMIHQVLIK (UniProt Q99698),0.0231
17,MAP1S_Q66K74_51_SWDVDPGVCNLDEQLK (UniProt Q66K74),-0.0131
18,MAP3K1_Q13233_1012_LQGFIPCR (UniProt Q13233),0.246
19,MAP2K2_P36507_384_SEVEEVDFAGWLCK (UniProt P36507),-0.0101
20,MAP3K20_Q9NYL2_231_LTIPSSCPR (UniProt Q9NYL2),-0.0691

# Same assay, conditions: 50 µM; THP-1; incubation time: 4 h
row,Target,probe-labelled cysteine peptide fold change
1,LYPLA1_O75608_53_YICPHAPVRPVTLNMNVAMPSWFDIIGLSPDSQEDESGIK (UniProt O75608),-0.0817
2,MAP3K7_O43318_180_ICDFGTACDIQTHMTNNK (UniProt O43318),-0.0171
3,MAPK1_P28482_40_YTNLSYIGEGAYGMVCSAYDNVNK (UniProt P28482),-0.0417
4,MAN2B1_O00754_268+273_NLCWDVLCVDQPLVEDPR (UniProt O00754),-0.0574
5,LZTS1_Q9Y250_450_GLELEVCENELQR (UniProt Q9Y250),0.42
6,LYAR_Q9NX58_33_NCECLSCIDCGK (UniProt Q9NX58),-0.0779
7,MATR3_P43243_821_NTHCSSLPHYQK (UniProt P43243),-0.196
8,MAZ_P56270_424_VHSQGPHHVCELCNK (UniProt P56270),-0.273
9,MAP4K1_Q92918_334+335_SSSLGIPDADCCR (UniProt Q92918),-0.126
10,LYAR_Q9NX58_36_NCECLSCIDCGK (UniProt Q9NX58),-0.115
11,MAP7D1_Q3KQU3_373_SASASPLTPCSVTR (UniProt Q3KQU3),-0.274
12,MANBA_O00462_213_IEAYNICHLNYFTFSPIYDK (UniProt O00462),0.00413
13,MAPK9_P45984_213_ENVDIWSVGCIMGELVK (UniProt P45984),0.179
14,M6PR_P20645_145_RAVVMISCNR (UniProt P20645),-0.0915
15,MAZ_P56270_339_SHDGAVHKPYNCSHCGK (UniProt P56270),-0.188
16,LYAR_Q9NX58_6_VFFTCNACGESVKK (UniProt Q9NX58),-0.0907
17,MAPKBP1_O60336_1443_LYHSVAGCK (UniProt O60336),0.16
18,LUC7L_Q9NQ29_43+44_SHLLDCCPHDILAGTR (UniProt Q9NQ29),-0.133
19,LTA4H_P09960_136_EHPYLFSQCQAIHCR (UniProt P09960),-0.0119
20,MAEA_Q7L5Y9_314+317_SPDCPVCSR (UniProt Q7L5Y9),-0.0107

row,Target,probe-labelled cysteine peptide fold change
1,MACF1_Q9UPN3_3315_TVSLTVCSAVK (UniProt Q9UPN3),-0.296
2,LYST_Q99698_2223_SEDDSPGDESCPR (UniProt Q99698),-0.385
3,MAP2K3_P46734_305_FSPEFVDFTAQCLR (UniProt P46734),0.0563
4,M6PR_P20645_145_AVVMISCNR (UniProt P20645),-0.202
5,MACF1_Q9UPN3_4581_QLEESASHLACFQAAESQLRPWLMEK (UniProt Q9UPN3),-0.101
6,LY75_O60449_83_CLGLDITK (UniProt O60449),0.154
7,MAP3K4_Q9Y6R4_1322_NIIGQVCDTPK (UniProt Q9Y6R4),-0.148
8,MARS_P56192_405_FVEGVCPFCGYEEAR (UniProt P56192),-0.136
9,MACF1_Q9UPN3_986_SSAPGECHQIMK (UniProt Q9UPN3),0.0156
10,MAP1S_Q66K74_738_SASPHDVDLCLVSPCEFEHR (UniProt Q66K74),-0.0572
11,MAP4_P27816_635_CSLPAEEDSVLEK (UniProt P27816),-0.135
12,MARF1_Q9Y4F3_590_ELCETK (UniProt Q9Y4F3),-0.157
13,MBIP_Q9NS73_243_DCGNQAVEER (UniProt Q9NS73),-0.0072
14,MBD4_O95243_296_TVCISDAGACGETLSVTSEENSLVK (UniProt O95243),0.206
15,M6PR_P20645_32_TCDLVGEK (UniProt P20645),-0.176
16,LYST_Q99698_1855_VHELENCNGLSMIHQVLIK (UniProt Q99698),0.0915
17,MAP1S_Q66K74_51_SWDVDPGVCNLDEQLK (UniProt Q66K74),0.0259
18,MAP3K1_Q13233_1012_LQGFIPCR (UniProt Q13233),0.159
19,MAP2K2_P36507_384_SEVEEVDFAGWLCK (UniProt P36507),-0.211
20,MAP3K20_Q9NYL2_231_LTIPSSCPR (UniProt Q9NYL2),0.0125
